# Results taken from PubChem BioAssay AID540276 (National Center for Advancing Translational Sciences (NCATS), 2011).
# Screen size: about 300,000 compounds; about 5,400 (1.8%) were called active. This list was built around the results that the source calls inconclusive (neither active nor inactive); the mix of calls is not that of the screen. Calls come from the whole dose curve; tested in HEK293 cells. Potencies beside an inconclusive call are fits to weak or partial responses and may not hold up.
# Test: qHTS for inhibitors of binding or entry into cells for Marburg Virus
# Details: Marburg virus pseudotyped entry inhibition, cell reporter; activity change, negative = inhibition: at 37.8 µM (top of the series) unless noted
# % is set by controls: 0 for no effect and ±100 for the full control effect; potency is the fitted concentration of half-maximal effect.
SMILES,"activity change, negative = inhibition",Potency
[O-]C(=C(C(=S)Nc1cccc2ccccc12)[n+]1ccccc1)c1ccc2c(c1)OCCO2,inactive: -12% [at 46.1 µM],
COc1ccc2[nH]c3c(c2c1)CCN1C(=O)C(CC(=O)NC/C=C(\C)CCC=C(C)C)C[C@H](C(=O)N(C(C)C)C(C)C)[C@@]31C (some centres not stated),inactive: -6.17%,
O=C(Nc1cccnc1)c1ccc(F)cc1,inactive: 13.6%,
COc1cc(OC)cc(C(=O)O/N=C(\N)c2ccncc2)c1,inactive: -0.508%,
COc1ccccc1/C=C/CN1CCCC(CO)(Cc2cccc(Cl)c2)C1 (configuration not stated),,active: 12.6 µM
CNc1nc(-c2ccc3c(c2)CCN3C(=O)c2ccccc2F)c(C)s1,,"inconclusive: 3.16 µM [activator, single point]"
CN1/C(=C\C(=O)Nc2ccc(F)cc2)C(C)(C)c2ccccc21,inactive: -3.07%,
O=C(NN1C(=O)c2ccccc2NC1c1ccc([N+](=O)[O-])o1)c1ccccc1 (configuration not stated),,"inconclusive: 11.2 µM [inhibitor, partial curve, poor fit]"
C=CCOC(=O)Nc1ccc(Cl)cc1NC(=O)OCC=C,,"inconclusive: 14.6 µM [inhibitor, partial curve, poor fit]"
CCc1cccc(CC)c1NC(=S)NCCc1c(C)[nH]c2ccccc12,,"inconclusive: 14.6 µM [inhibitor, single point]"
Cc1cccc(-c2noc(CN(C)C(=O)c3ccc4c(c3)OCO4)n2)c1,,"inconclusive: 5.01 µM [inhibitor, partial curve, poor fit]"
CN(c1ccc(C(=O)NCCSCc2c(F)cccc2Cl)cc1)S(C)(=O)=O,,"inconclusive: 2.82 µM [inhibitor, partial curve, poor fit]"
CC1=C(C(N)=O)C(c2ccc3c(c2)OCO3)n2nc(-c3cccc(C)c3)nc2N1 (configuration not stated),,"inconclusive: 2.31 µM [inhibitor, partial curve, poor fit]"
CCN(CC)S(=O)(=O)c1cccc(-c2nnc(SCCOc3ccc(Cl)cc3)o2)c1,,"inconclusive: 3.16 µM [inhibitor, single point]"
Cc1ccc(N=C(c2cccs2)N2CCOCC2)cc1,inactive: 20.7%,
COc1ccc(O)c(-c2cc(-c3ccc(F)cc3)n[nH]2)c1,,"inconclusive: 35.5 µM [inhibitor, single point]"
CCOC(=O)c1nnn(-c2nonc2N)c1CNc1ccc(C)c(Br)c1,,"inconclusive: 35.5 µM [inhibitor, single point]"
CCCOc1ccc(NC(=O)CC2C(=O)N(CC)C(=S)N2CCCN2CCN(Cc3ccccc3)CC2)cc1 (configuration not stated),,"inconclusive: 7.08 µM [inhibitor, partial curve, poor fit]"
O=C(/C=C/c1cccs1)Nc1cccc(NC(=O)/C=C/c2cccs2)n1,,"inconclusive: 14.1 µM [inhibitor, single point]"
CCOC(=O)c1sc(NC(=O)CNCc2ccccn2)c(C(=O)OCC)c1C,,"inconclusive: 11.2 µM [inhibitor, partial curve, poor fit]"
O=C(Nc1nc(-c2cc(F)ccc2F)cs1)c1ccccn1,inactive: 7.41% [at 46.1 µM],
Cc1cc(C)c(S(=O)(=O)N2CCCCC2CCNC(=O)C(=O)NC2CC2)c(C)c1 (configuration not stated),,"inconclusive: 0.447 µM [inhibitor, full curve, poor fit]"
COc1ccc(CCN2C(=S)NC3CC2(C)Oc2ccc([N+](=O)[O-])cc23)cc1OC (configuration not stated),,"inconclusive: 13 µM [inhibitor, partial curve, poor fit]"

SMILES,"activity change, negative = inhibition",Potency
COc1ccc(N/C=C/C(=O)C(F)(F)F)cc1,,"inconclusive: 6.31 µM [activator, single point]"
CCOc1cc(NC(=O)c2ccco2)c(OCC)cc1NC(=O)Cc1cccc(OC)c1,,inactive
C/C(=N\NC(=O)c1nnn(-c2nonc2N)c1CN1CCCCC1)c1ccccc1O,,"inconclusive: 3.55 µM [activator, single point]"
CCN1CCN(C(=O)Nc2ccc(Cc3ccc(NC(=O)N4CCN(CC)CC4)cc3)cc2)CC1,,"inconclusive: 5.17 µM [inhibitor, full curve, poor fit]"
N#Cc1cc(C(=O)c2ccccc2OCC(=O)Nc2ccccc2)cn(C2CCCCC2)c1=O,inconclusive: 49.1% [activator] [at 46.1 µM],
Cc1cc(N2CCCC2)nc2ccc(NC(=S)NC(C)C)cc12,,"inconclusive: 25.9 µM [inhibitor, single point]"
C=CCOC(=O)C1=C(C)NC(SCC(=O)N(CC)CC)=C(C#N)C1c1ccccc1 (configuration not stated),,"inconclusive: 10 µM [inhibitor, partial curve, poor fit]"
COc1ccc(C)cc1NC(c1nnc(-c2ccccc2)o1)c1ccc(F)cc1Cl (configuration not stated),,"inconclusive: 10 µM [inhibitor, partial curve, poor fit]"
COC(=O)NC1CSCC1OC(=O)CCN1C(=O)c2ccccc2C1=O (configuration not stated),inactive: -0.402%,
CCOc1ccc(C2Nc3cccc4cccc(c34)N2)cc1OC,,"inconclusive: 15.8 µM [inhibitor, single point]"
Cc1cc(C(=O)COc2ccccc2Cl)c(C)n1-c1ccc2c(c1)OCO2,,active: 16.4 µM
COc1ccc(NC(=O)CCCn2c(=O)oc3ccccc32)cc1Cl,,"inconclusive: 16.4 µM [activator, partial curve, poor fit]"
O=C(Nc1ccc(Nc2ccccc2)cc1)c1c(Cl)cccc1Cl,,"inconclusive: 17.8 µM [inhibitor, partial curve, poor fit]"
Cc1ccc(Cc2cnc(NC(=O)c3ccc4c(c3)CC(c3ccccc3)OC4=O)s2)cc1 (configuration not stated),inactive: 2.31% [at 46.1 µM],
Cn1c2ccccc2c2cc(C(=O)NNC(=O)CCl)sc21,,"inconclusive: 20 µM [inhibitor, single point]"
COC(=O)c1ccc(COC(=O)c2cccn2C)o1,,"inconclusive: 28.2 µM [activator, single point]"
O=C(CN1CCOCC1)N/N=C/c1ccc(-c2ccc(C(=O)O)cc2)o1,inactive: 4.84% [at 46.1 µM],
COC(=O)c1ccc(C2C(Oc3ccc(OC)cc3)C(=O)N2CCc2ccc(OC)c(OC)c2)cc1 (configuration not stated),inactive: -4.57%,
Cc1ccc(NC(=O)/C(=C/c2cccs2)NC(=O)c2ccco2)cc1,inactive: -21.9%,
Cc1nn(C)c(C)c1S(=O)(=O)N1CCC(CO)(Cc2ccc(Cl)cc2)CC1,,"inconclusive: 8.91 µM [inhibitor, partial curve, poor fit]"
COc1cccc(C(C(=O)NC(C)(C)C)N(C(=O)CCC(=O)Nc2cc(C)on2)c2ccc3c(c2)OCCO3)c1OC (configuration not stated),,"inconclusive: 20 µM [inhibitor, partial curve, poor fit]"
N=c1ccn(Cc2c(Cl)cccc2Cl)cc1,,"inconclusive: 11.2 µM [inhibitor, partial curve]"
CC(=O)Oc1ccccc1/C=C/c1nc2ccccc2c(=O)o1,,"inconclusive: 1 µM [inhibitor, full curve, poor fit]"

SMILES,"activity change, negative = inhibition",Potency
COc1ccc(NC(=O)N2CCC(c3nc4ccccc4[nH]3)CC2)cc1,inactive: -1.84% [at 46.1 µM],
CCOC(=O)c1[nH]c2ccc(Br)cc2c1NC(=O)CCN1CCCC(C)C1 (configuration not stated),,"inconclusive: 25.9 µM [inhibitor, single point]"
COc1ccc(CCNC(=O)c2c(O)nc3ccccn3c2=O)cc1OC,inactive: -1.54% [at 46.1 µM],
CC(C)C(=O)Nc1cccc(NC(=O)c2cccnc2)c1,inactive: 26.1%,
Cc1ccc(S(=O)(=O)c2nc(S(C)(=O)=O)sc2NCC2CCCO2)cc1 (configuration not stated),inactive: 17.3%,
CN(C)c1ccc(C(C(=O)NCC2CCCO2)N(C(=O)c2snc(C(N)=O)c2N)c2ccc3c(c2)OCO3)cc1 (configuration not stated),inactive: -4.26% [at 46.1 µM],
CCOc1ccc2nc(N3CCCC(C(=O)Nc4ccc(OC)cc4)C3)sc2c1 (configuration not stated),,"inconclusive: 2.24 µM [activator, full curve, poor fit]"
COC1(C)CC2C(CC1OC(=O)c1cc([N+](=O)[O-])cc([N+](=O)[O-])c1)C2(C)C (configuration not stated),,"inconclusive: 2 µM [inhibitor, single point]"
Cc1nn(-c2cccc(Cl)c2)c2c1C(c1cccnc1)C(C#N)=C(N)O2 (configuration not stated),,"inconclusive: 23.1 µM [inhibitor, partial curve, poor fit]"
OC(CNC1Cc2ccccc2C1)COc1ccc(F)cc1 (configuration not stated),,"inconclusive: 35.5 µM [inhibitor, single point]"
CCOc1ccc(NC(=O)c2oc3ccccc3c2NC(=O)C(C)(C)C)cc1,,"inconclusive: 22.4 µM [inhibitor, partial curve, poor fit]"
O=[N+]([O-])c1cc(Br)c(O)c(/C=N/Nc2nnnn2-c2cccc3ccccc23)c1,,inactive
CC1CC(NC(=O)c2cc3c(=O)n4ccccc4nc3n2C)CC(C)(C)C1 (configuration not stated),,"inconclusive: 3.16 µM [inhibitor, partial curve, poor fit]"
COc1ccccc1NC(=O)CSc1oc(-c2ccco2)nc1S(=O)(=O)c1ccc(C)cc1,inactive: -7.33% [at 46.1 µM],
COC(=O)C1(C(=O)OC)C[C@@H]2CON=C2[C@H]1c1ccccc1,,"inconclusive: 1.19 µM [activator, single point]"
COc1ccc(/C=C/CN2CCC(Oc3ccc(C(=O)N4CCCCC4)cc3)CC2)cc1,,"inconclusive: 7.08 µM [inhibitor, partial curve]"
Cc1cccc(C(=O)Oc2ccc(/C=N/NC(=O)c3ccc(O)cc3)cc2)c1,inactive: 1.58%,
O=c1c2ccccc2nc(SCc2cn3ccsc3n2)n1-c1ccc(F)cc1,,"inconclusive: 12.6 µM [inhibitor, partial curve]"
Nc1nnc(/C=C/c2ccccc2Cl)s1,,active: 7.08 µM
CCOc1ccc(NC(=O)c2cc3cc(C)ccc3n2C)cc1,inactive: -14.7% [at 46.1 µM],
CCOc1ccc(NCc2nnc(SCC(=O)Nc3cc(C)on3)n2-c2ccccc2OC)cc1,,"inconclusive: 2.59 µM [inhibitor, full curve]"

# Reprinted from the listing for reference:
SMILES,"activity change, negative = inhibition",Potency
COc1ccc(CCNC(=O)c2c(O)nc3ccccn3c2=O)cc1OC,inactive: -1.54% [at 46.1 µM],
CC(C)C(=O)Nc1cccc(NC(=O)c2cccnc2)c1,inactive: 26.1%,
Cc1ccc(S(=O)(=O)c2nc(S(C)(=O)=O)sc2NCC2CCCO2)cc1 (configuration not stated),inactive: 17.3%,
CN(C)c1ccc(C(C(=O)NCC2CCCO2)N(C(=O)c2snc(C(N)=O)c2N)c2ccc3c(c2)OCO3)cc1 (configuration not stated),inactive: -4.26% [at 46.1 µM],
CCOc1ccc2nc(N3CCCC(C(=O)Nc4ccc(OC)cc4)C3)sc2c1 (configuration not stated),,"inconclusive: 2.24 µM [activator, full curve, poor fit]"
COC1(C)CC2C(CC1OC(=O)c1cc([N+](=O)[O-])cc([N+](=O)[O-])c1)C2(C)C (configuration not stated),,"inconclusive: 2 µM [inhibitor, single point]"
Cc1nn(-c2cccc(Cl)c2)c2c1C(c1cccnc1)C(C#N)=C(N)O2 (configuration not stated),,"inconclusive: 23.1 µM [inhibitor, partial curve, poor fit]"
OC(CNC1Cc2ccccc2C1)COc1ccc(F)cc1 (configuration not stated),,"inconclusive: 35.5 µM [inhibitor, single point]"
CCOc1ccc(NC(=O)c2oc3ccccc3c2NC(=O)C(C)(C)C)cc1,,"inconclusive: 22.4 µM [inhibitor, partial curve, poor fit]"
O=[N+]([O-])c1cc(Br)c(O)c(/C=N/Nc2nnnn2-c2cccc3ccccc23)c1,,inactive
CC1CC(NC(=O)c2cc3c(=O)n4ccccc4nc3n2C)CC(C)(C)C1 (configuration not stated),,"inconclusive: 3.16 µM [inhibitor, partial curve, poor fit]"
COc1ccccc1NC(=O)CSc1oc(-c2ccco2)nc1S(=O)(=O)c1ccc(C)cc1,inactive: -7.33% [at 46.1 µM],
COC(=O)C1(C(=O)OC)C[C@@H]2CON=C2[C@H]1c1ccccc1,,"inconclusive: 1.19 µM [activator, single point]"
